# Results published in the supplement of paper PMC9135407.
# “And” between values parts separate entries of the source, which are not always exact repeats. Equal values may be shown once. Where a name gives a salt, the structure may show the parent alone. ± gives the standard deviation of the averaged measurements. This is one part of the list. Plates or batches differ in their baseline, so values are only roughly comparable.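 Culture-activated primary human stellate myofibroblasts, where regained lipid droplets signal inactivation. Value: share of Hoechst-counted cells above a per-plate Bodipy cutoff, in duplicate wells, with DMSO negative and nortriptyline positive controls on each plate. Hits: a control-normalized score above the plate's top-tenth-percentile nortriptyline wells, or one of a plate's three best wells. Final well concentrations are not given.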
# Tested on: primary human hepatic stellate cells (donor 1)
# Assay: percent Bodipy-positive cells; higher = more lipid droplet accumulation
# Details: 48 h
# [1] = library stock concentration: 80 uM
# [2] = library stock concentration: 400 uM
# [3] = library stock concentration: 2 mM
# [4] = library stock concentration: 3.33 mM
# [5] = library stock concentration: 10 mM
# [6] = library stock concentration: 1 mM
# [7] = library stock concentration: 15.4 mM
smiles,measurement,setting,value
Cc1cccc(-c2[nH]c(C(C)(C)C)nc2-c2ccc3nccnc3c2)n1,percent Bodipy-positive cells,[1],20.1 ± 1.6%
same,percent Bodipy-positive cells,[2],27.6 ± 26%
same,percent Bodipy-positive cells,[3],17.7 ± 4.6%
same,percent Bodipy-positive cells,[4],8.71 ± 3.6%
Cc1ccccc1/C=C/C1=NCCN1 [Metrazoline oxalate],percent Bodipy-positive cells,[5],61.4 ± 3.9%
O=C(Nc1ccc(-c2cn[nH]c2)cc1)C1COc2ccccc2O1 (stereo not drawn) [Rho Kinase Inhibitor V],percent Bodipy-positive cells,[4],16.6 ± 5%
C[C@@H]1CC(=O)NN=C1c1ccc(NN=C(C#N)C#N)cc1,percent Bodipy-positive cells,[5],23.8 ± 2.4%
C[C@@H]1CC(=O)NN=C1c1ccc(NN=C(C#N)C#N)cc1 [Levosimendan],percent Bodipy-positive cells,[4],8.39 ± 6.1%
same,percent Bodipy-positive cells,[5],13.8 ± 5.7%
COc1ccc(CNC(=O)Nc2ncc([N+](=O)[O-])s2)cc1,percent Bodipy-positive cells,[5],95.15 ± 0.79%
CCCCC/C=C\C/C=C\C/C=C\CCCCCCC(=O)OCC [Dihomo-.gamma.-Linolenic Acid ethyl ester],percent Bodipy-positive cells,[6],7.31 ± 0.075%
COc1ccc(-c2nc(C(=O)N3CCN(C)CC3)sc2-c2ccc(OC)cc2)cc1,percent Bodipy-positive cells,[6],16.2 ± 6.4%
same,percent Bodipy-positive cells,[5],45.1 ± 1.8%
Cc1c(NC(=O)c2ccc(C(C)(C)C)cc2)cccc1-c1cn(C)c(=O)c(Nc2ccc(C(=O)N3CCOCC3)cc2)n1,percent Bodipy-positive cells,[4],9.18 ± 1.9%
same,percent Bodipy-positive cells,[5],26.5 ± 8.6%
O=C(O)Cc1ccccc1Nc1c(Cl)cccc1Cl [Diclofenac Potassium],percent Bodipy-positive cells,[4],6.49 ± 4.2%
same,percent Bodipy-positive cells,[5],12.5 ± 4.9%
O=C(O)Cc1ccccc1Nc1c(Cl)cccc1Cl [Diclofenac Sodium],percent Bodipy-positive cells,[4],19.1 ± 14%
same,percent Bodipy-positive cells,[5],13.5 ± 0.28%
O=C(O)Cc1ccccc1Nc1c(Cl)cccc1Cl [Diclofenac (sodium salt)],percent Bodipy-positive cells,[6],11.6 ± 0.67%
O=C(O)Cc1ccccc1Nc1c(Cl)cccc1Cl [Diclofenac Diethylamine],percent Bodipy-positive cells,[4],8.52 ± 1.4%
same,percent Bodipy-positive cells,[5],30.7 ± 27%
O=C(O)Cc1ccccc1Nc1c(Cl)cccc1Cl [Diclofenac sodium],percent Bodipy-positive cells,,34.7 ± 3%
same,percent Bodipy-positive cells,library stock concentration: 6.3 mM,2.22 ± 0.81%
O=C(O)Cc1ccccc1Nc1c(Cl)cccc1Cl,percent Bodipy-positive cells,[5],7.54 ± 3.3%
"CCCCCCCCC#CCC#CCC#CCCCC(=O)O [5,8,11-Eicosatriynoic acid]",percent Bodipy-positive cells,[6],7.87 ± 9.7%
"CCCCCCCCC#CCC#CCC#CCCCC(=O)O [5,8,11-Eicosatriynoic Acid]",percent Bodipy-positive cells,[6],13 ± 0.34%
Cc1nn(C)c2nc(NNC(=O)Nc3cc(Cl)nc(Cl)c3)cc(C(C)C)c12,percent Bodipy-positive cells,[6],8.79 ± 1.6%
same,percent Bodipy-positive cells,[5],7.3 ± 2.2%
C[C@@H](c1ncncc1F)[C@](O)(Cn1cncn1)c1ccc(F)cc1F [Voriconazole],percent Bodipy-positive cells,[4],9.57 ± 1.1%
same,percent Bodipy-positive cells,[5],15.8% and 39.3%
C[C@@H](c1ncncc1F)[C@](O)(Cn1cncn1)c1ccc(F)cc1F,percent Bodipy-positive cells,library stock concentration: 9.9 mM,18.2 ± 14%
CN1CCN(CCCN2c3ccccc3Sc3ccc(S(=O)(=O)N(C)C)cc32)CC1 [Thioproperazine dimesylate],percent Bodipy-positive cells,,78.6 ± 4.7%
Cc1cc(/N=N/c2cc(S(=O)(=O)O)c(C)cc2C)c(N)cc1O [Ischemin],percent Bodipy-positive cells,[1],31.6 ± 3%
same,percent Bodipy-positive cells,[2],31.3 ± 13%
same,percent Bodipy-positive cells,[3],39 ± 6.3%
same,percent Bodipy-positive cells,[5],31.9 ± 2%
O=c1[nH]cc(F)c(=O)[nH]1 [Fluorouracil],percent Bodipy-positive cells,[5],7.54 ± 2.9%
same,percent Bodipy-positive cells,[7],2.36 ± 0.49%
"O=c1[nH]cc(F)c(=O)[nH]1 [Fluorouracil (5-Fluoracil, 5-FU)]",percent Bodipy-positive cells,[4],6.03 ± 0.58%
same,percent Bodipy-positive cells,[5],17.2 ± 4.2%
O=c1[nH]cc(F)c(=O)[nH]1 [5-Fluorouracil],percent Bodipy-positive cells,[5],37.4 ± 16%
O=c1[nH]cc(F)c(=O)[nH]1 [5-fluorouracil],percent Bodipy-positive cells,[7],7.31 ± 0.75%
O=c1[nH]cc(F)c(=O)[nH]1,percent Bodipy-positive cells,[5],32.2 ± 3.8%
O=C(O)c1cc(=O)c2cccc(O)c2[nH]1 [Xanthurenic acid],percent Bodipy-positive cells,[5],29 ± 1.7%
CN(C)CCCN1c2ccccc2Sc2ccc(Cl)cc21.Cl [Chlorpromazine HCl],percent Bodipy-positive cells,[5],97.7 ± 1.6%
O=C(O)CC/C=C\C[C@H]1CO[C@@H](c2ccccc2Cl)O[C@H]1c1ccccc1O,percent Bodipy-positive cells,[5],8.54 ± 5.2%
C[C@]12C=CC(=O)C=C1CC[C@@H]1[C@@H]2[C@@H](O)C[C@@]2(C)[C@H]1CC[C@]2(O)C(=O)CO [Prednisolone],percent Bodipy-positive cells,,23.8 ± 3.8%
same,percent Bodipy-positive cells,[4],6.76 ± 3.7%
same,percent Bodipy-positive cells,[5],5.8% and 15.2% and 30.6%
O=c1ncn2nc(Sc3ccc(F)cc3F)ccc2c1-c1c(Cl)cccc1Cl,percent Bodipy-positive cells,[1],15.7 ± 0.34%
same,percent Bodipy-positive cells,[2],20.6 ± 3%
same,percent Bodipy-positive cells,[3],28 ± 3.8%
same,percent Bodipy-positive cells,[4],12.8 ± 3.9%
same,percent Bodipy-positive cells,[5],27.5% and 24.8%
CC(C)Cc1ccc([C@H](C)C(=O)O)cc1 [S(+)-Ibuprofen],percent Bodipy-positive cells,[5],33.8 ± 6%
CC(C)Cc1ccc([C@H](C)C(=O)O)cc1 [S-(+)-ibuprofen],percent Bodipy-positive cells,,6.9 ± 4%
Cc1cncc(CN2CCC(=C3c4ccc(Cl)cc4CCc4cccnc43)CC2)c1 [Rupatadine Fumarate],percent Bodipy-positive cells,[4],39.2 ± 5.2%
CS(=O)(=O)c1ccc([C@@H](O)[C@@H](CO)NC(=O)C(Cl)Cl)cc1 [Thiamphenicol],percent Bodipy-positive cells,,21.7 ± 6.5%
same,percent Bodipy-positive cells,[4],20.2 ± 23%
same,percent Bodipy-positive cells,[5],9.02% and 32.4%
N#CCNC(=O)c1ccc(-c2ccnc(Nc3ccc(N4CCOCC4)cc3)n2)cc1 [Momelotinib (CYT387) (2 mM)],percent Bodipy-positive cells,[3],79.9 ± 7.9%
N#CCNC(=O)c1ccc(-c2ccnc(Nc3ccc(N4CCOCC4)cc3)n2)cc1 [Momelotinib (CYT387) (10 mM)],percent Bodipy-positive cells,[5],99.66 ± 0.48%

# Part of the list above, as tab-separated lines:
smiles	measurement	setting	value
CCCCCCCCC#CCC#CCC#CCCCC(=O)O [5,8,11-Eicosatriynoic Acid]	percent Bodipy-positive cells	[6]	13 ± 0.34%
Cc1nn(C)c2nc(NNC(=O)Nc3cc(Cl)nc(Cl)c3)cc(C(C)C)c12	percent Bodipy-positive cells	[6]	8.79 ± 1.6%
same	percent Bodipy-positive cells	[5]	7.3 ± 2.2%
C[C@@H](c1ncncc1F)[C@](O)(Cn1cncn1)c1ccc(F)cc1F [Voriconazole]	percent Bodipy-positive cells	[4]	9.57 ± 1.1%
same	percent Bodipy-positive cells	[5]	15.8% and 39.3%
